Laboratory results taken from paper PMC5290277, “Specialized interfaces of Smc5/6 control hinge stability and DNA association”.
For some of these results: The comparison behind a weaker result is the experiment's own reference, which may not be listed here. For some of these results: For at least one entry, the source does not settle the construct or the ends of the probe. For some of these results: At least one verdict rests on a figure or table, not on a statement of the authors.

Tests used:
[1] = system: Smc5 hinge (extended-hinge) + Smc6 hinge (extended-hinge); test: pull-down; conditions: 20 mM HEPES.NaOH pH 7.5, 100 mM NaCl, 1 mM EDTA, 0.5 mM TCEP, room temperature 10 min, 100 nM DNA (FP, EMSA); pull-down same buffer, protein incubation 4 C 30 min; recombinant protein; label: 5' biotin; single-stranded DNA
[2] = system: Smc5 hinge R609E/R615E + Smc6 hinge (extended-hinge); test: fluorescence polarization; conditions: significantly disrupted, Kd not determined; 20 mM HEPES.NaOH pH 7.5, 100 mM NaCl, 1 mM EDTA, 0.5 mM TCEP, room temperature 10 min, 100 nM DNA (FP, EMSA); pull-down same buffer, protein incubation 4 C 30 min; recombinant protein; label: 5' fluorescein; single-stranded DNA
[3] = system: Smc5 hinge R609E/R615E + Smc6 hinge (extended-hinge); test: switchSENSE; conditions: significantly disrupted; 5' HS-(CH2)6 thiol linker; 20 mM HEPES.NaOH pH 7.5, 100 mM NaCl, 1 mM EDTA, 0.5 mM TCEP, room temperature 10 min, 100 nM DNA (FP, EMSA); pull-down same buffer, protein incubation 4 C 30 min; recombinant protein; label: 3' Cy3; single-stranded DNA
[4] = system: Smc5 hinge (extended-hinge) + Smc6 hinge R706C; test: switchSENSE; conditions: reduced maximum signal; 5' HS-(CH2)6 thiol linker; 20 mM HEPES.NaOH pH 7.5, 100 mM NaCl, 1 mM EDTA, 0.5 mM TCEP, room temperature 10 min, 100 nM DNA (FP, EMSA); pull-down same buffer, protein incubation 4 C 30 min; recombinant protein; label: 3' Cy3; single-stranded DNA
[5] = system: Smc5 hinge Y612A + Smc6 hinge (extended-hinge); test: switchSENSE; conditions: reduced maximum signal, monophasic dissociation; 5' HS-(CH2)6 thiol linker; 20 mM HEPES.NaOH pH 7.5, 100 mM NaCl, 1 mM EDTA, 0.5 mM TCEP, room temperature 10 min, 100 nM DNA (FP, EMSA); pull-down same buffer, protein incubation 4 C 30 min; recombinant protein; label: 3' Cy3; single-stranded DNA
[6] = system: Smc5 hinge (extended-hinge) + Smc6 hinge F528A; test: switchSENSE; conditions: reduced maximum signal, monophasic, associates at lower protein concentration than WT; 5' HS-(CH2)6 thiol linker; 20 mM HEPES.NaOH pH 7.5, 100 mM NaCl, 1 mM EDTA, 0.5 mM TCEP, room temperature 10 min, 100 nM DNA (FP, EMSA); pull-down same buffer, protein incubation 4 C 30 min; recombinant protein; label: 3' Cy3; single-stranded DNA
[7] = system: Smc5 hinge (extended-hinge) + Smc6 hinge (extended-hinge); test: fluorescence polarization; conditions: 20 mM HEPES.NaOH pH 7.5, 100 mM NaCl, 1 mM EDTA, 0.5 mM TCEP, room temperature 10 min, 100 nM DNA (FP, EMSA), pull-down same buffer, protein incubation 4 C 30 min, recombinant protein, only the site is given
[8] = system: Smc5 hinge (extended-hinge) + Smc6 hinge (extended-hinge); test: EMSA; conditions: aggregated species in well above 1.8 uM protein; 20 mM HEPES.NaOH pH 7.5, 100 mM NaCl, 1 mM EDTA, 0.5 mM TCEP, room temperature 10 min, 100 nM DNA (FP, EMSA); pull-down same buffer, protein incubation 4 C 30 min; recombinant protein; label: 3' fluorescein; single-stranded DNA; only the site is given

CTCGTCTGGCTCTGGATTAC [20mer (biotin)]: binds [1].
“GCGGGTAATCCAGAGCCAGACGAGCACTACGAACAACTAA [40mer (biotin)]”: binds [1].
“GCGGGTAATCCAGAGCCAGACGAGCACTACGAACG [35mer (biotin)]”: binds [1].
GCTCGTCTGGCTCTG [15mer]: binds more weakly [2].
“GCTCGTCTGGCTCTGGATTACCCGC [25mer (biotin)]”: binds [1].
“GTAGTGCTCGTCTGGCTCTGGATTACCCGC [30mer (biotin)]”: binds [1].
“GTGTGAACCCTCCAACAAAGGTAGCATTTGCCAGCTCTCGTGATGCAG [switchSENSE 48mer]”: binds more weakly [3]; binds more weakly [4]; binds more weakly [5]. “GTGTGAACCCTCCAACAAAGGTAGCATTTGCCAGCTCTCGTGATGCAG [switchSENSE 48mer]”: binds more weakly [6].
“TTAGTTGTTCGTAGTGCTCGTCTGGCTCTGGATTACCCGC (double strand) [annealed A+B (called 45 bp dsDNA)]”: binds more weakly ([7]; only ~45% bound at 20 uM protein, label: 3' fluorescein on A).
For “TTAGTTGTTCGTAGTGCTCGTCTGGCTCTGGATTACCCGC [oligonucleotide A (called 45 nt ssDNA)]”, the Kd [8] was 1200 nM and the Kd ([7]; label: 3' fluorescein, single-stranded DNA) was 2000 nM.
